Assay results reported in the supplement of paper PMC10735217.
Counter-ions that a name gives are not always drawn. The list shows a part of the results. Repeats in this data set agree poorly, so a single value says little.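 In a drug-repurposing library screen, luminescence reads luciferase driven by eight TEAD-binding elements, stably integrated into human kidney-derived cells. Compounds scoring over five robust Z scores above the plate mean are called hits.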

Test system: HEK293A TEAD-LUC reporter
Experiment: TEAD-luciferase reporter activity (YAP activation), robust Z score vs plate; higher = stronger YAP/TEAD activation
Settings: 24 h

Row | SMILES | TEAD-luciferase reporter activity (compound concentration: 200 nM) | TEAD-luciferase reporter activity (compound concentration: 2 uM) | TEAD-luciferase reporter activity (compound concentration: 10 uM)
1 | COC(=O)CSc1nc(-c2ccccc2)c(-c2ccccc2)o1 | inactive: -1.44 | inactive: -0.637 | inactive: -0.334
2 | CC(=O)[C@]1(O)Cc2c(O)c3c(c(O)c2[C@@H](OC2C[C@H](N)[C@H](O)[C@H](C)O2)C1)C(=O)c1ccccc1C3=O (stereo partly drawn) [idarubicin] | inactive: 1.8 | inactive: 2 | inactive: 2.49
3 | CCN(CCCc1ccccc1)CCCc1ccccc1 [Alverine citrate] | inactive: 0.295 | inactive: -0.402 | inactive: 0.45
4 | CC[C@H](C)[C@H](NC(=O)[C@H](CC(N)=O)NC(=O)[C@H](CC(N)=O)NC(=O)[C@H](CCCNC(=N)N)NC(=O)[C@H](CC(N)=O)NC(=O)[C@H](CCCNC(=N)N)NC(=O)[C@@H](N)CCCCN)C(=O)N[C@@H](C)C(=O)O | inactive: -0.653 | inactive: -0.353 | inactive: -0.089
5 | O=C(O)CC[C@H](NC(=O)[C@H]1CC[C@H](Oc2ccc(C(=O)c3ccccc3)c(Cl)c2Cl)C1)C(=O)O | inactive: -0.0195 | – | inactive: 3.94
6 | C[C@@](Cc1ccc(O)c(O)c1)(NN)C(=O)O [Carbidopa] | inactive: -0.3 | inactive: -1.26 | inactive: 0.69
7 | CCN(CC)C(=O)Nc1ccc(OCC(O)CNC(C)(C)C)c(C(C)=O)c1 (stereo not drawn) [celiprolol] | inactive: 0.876 | inactive: -2.15 | inactive: 2.74
8 | COCC1=C(C(=O)O)N2C(=O)[C@@H](NC(=O)/C(=N\OC)c3csc(N)n3)[C@H]2SC1 [Cefpodoxime] | – | inactive: -0.945 | –
9 | COCC1=C(C(=O)O)N2C(=O)[C@@H](NC(=O)/C(=N\OC)c3csc(N)n3)[C@H]2SC1 | inactive: -0.603 | – | inactive: -0.903
10 | CCOC(=O)c1c(CSc2ccccc2)n(C)c2cc(Br)c(O)c(CN(C)C)c12 [Arbidol] | inactive: 0.421 | inactive: 2.6 | inactive: 2.34
11 | Cc1cccc(C)c1NNC(=N)N(C)C | inactive: 0.266 | inactive: -2.33 | inactive: -0.0378
12 | FC(F)(F)c1ccc(CNc2ccc(Cc3c[nH]c4ncccc34)cn2)cc1 | inactive: -0.506 | inactive: 0.184 | inactive: 0.457
13 | COc1cccc([C@H]2O[C@H](CC(=O)N3CCC(CC(=O)O)CC3)C(=O)N(CC(C)(C)COC(C)=O)c3ccc(Cl)cc32)c1OC [Lapaquistat acetate] | inactive: 1.73 | inactive: -1.79 | inactive: 3
14 | CC(C)Cc1ccc(C(C)C(=O)NO)cc1 (stereo not drawn) [Ibuproxam] | inactive: -0.528 | inactive: 0.929 | active: 5.22
15 | CCN(CC)CCOc1cccc(CNc2ncc3cc(-c4ccccc4)c(=O)n(C)c3n2)c1 | inactive: -0.695 | inactive: 0.267 | inactive: 0.97
16 | N[C@@H]1c2cccnc2[C@H](OC(=O)N2CCC(n3c(=O)[nH]c4ncccc43)CC2)CC[C@H]1c1cccc(F)c1F [Rimegepant] | inactive: 2.26 | inactive: 0.198 | inactive: -0.147
17 | Cc1cccc(Cl)c1NC(=O)CCN1CCCC2CCCC21 (stereo not drawn) | inactive: -0.899 | inactive: 0.57 | inactive: 0.000409
18 | O=C1CN2Cc3c(ccc(Cl)c3Cl)N=C2N1 [anagrelide hydrochloride] | inactive: -0.653 | – | inactive: 0.962
19 | O=C1CN2Cc3c(ccc(Cl)c3Cl)N=C2N1 [anagrelide CR] | – | inactive: -2.19 | –
20 | CSCCNc1nc(SCCC(F)(F)F)nc2c1ncn2[C@@H]1O[C@H](COP(=O)(O)OP(=O)(O)C(Cl)(Cl)P(=O)(O)O)[C@@H](O)[C@H]1O [Cangrelor] | inactive: -0.431 | inactive: -0.925 | inactive: 2.47
21 | O=C(c1cc[n+]([O-])cc1)N1CCC(=C2c3ccc(Cl)cc3CCc3cccnc32)CC1 | inactive: 0.395 | inactive: 0.7 | inactive: -0.805
22 | CCCCCCCCCCCCN [dodecylamine] | – | inactive: -1.87 | –
23 | CCCCCCCCCCCCN [dodecylamine, Cellegy] | inactive: -1.45 | – | inactive: 3.16
24 | COc1ccc(S(N)(=O)=O)cc1C(=O)NC[C@H]1CCCN1CC1CC1 | inactive: -0.605 | inactive: -1.24 | inactive: -0.114
25 | O=C(O)Cc1nn(Cc2ccc(Br)cc2F)c(=O)c2ccccc12 [Ponalrestat] | inactive: -1.41 | inactive: -0.371 | active: 7.92
26 | COc1cc(C(C)C)c2c(c1)S(=O)(=O)N(COc1cc(=O)n3cccc(OCCN4CCCCC4)c3n1)C2=O | inactive: 0.979 | inactive: -1.15 | inactive: 3.78
27 | CO/N=C(\C(=O)N[C@@H]1C(=O)N2C(C(=O)O)=C(/C=C\c3scnc3C)CS[C@H]12)c1csc(N)n1 | inactive: -0.448 | inactive: -1.66 | inactive: -0.439
28 | CC(=O)N1Cc2ccccc2CC2(CCCN2CCc2ccccc2)C1 (stereo not drawn) | inactive: 0.756 | – | inactive: 3.36

Complete entries as entered above:
N[C@@H]1c2cccnc2[C@H](OC(=O)N2CCC(n3c(=O)[nH]c4ncccc43)CC2)CC[C@H]1c1cccc(F)c1F [Rimegepant] reads TEAD-luciferase reporter activity (compound concentration: 200 nM): inactive: 2.26; TEAD-luciferase reporter activity (compound concentration: 2 uM): inactive: 0.198; TEAD-luciferase reporter activity (compound concentration: 10 uM): inactive: -0.147
COCC1=C(C(=O)O)N2C(=O)[C@@H](NC(=O)/C(=N\OC)c3csc(N)n3)[C@H]2SC1 [Cefpodoxime] reads TEAD-luciferase reporter activity (compound concentration: 2 uM): inactive: -0.945
